Data as given in PubChem BioAssay AID1259274 (Sanger Institute, 2017)
Here is a random part of 794 deposited reagents. 11 of all reagents (1.4%) were called active. 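Calls rest on knock-down without drug only; synergy scores with anchor drugs were not used for the essential call.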 Viability is capped at 1. Not all columns of the deposit are shown. No sequences are given here. The record does not give: the amount of reagent, the time to read-out.

Screen: 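siRNA screen of kinases for partners that act in synergy with targeted drugs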 (primary screen)
Cell system: human RKO colorectal cancer cells
Reagent: siRNA pool against human genes
Conditions: anchor drugs BYL719 at 1 µM, cetuximab at 5 µg/ml or trametinib at 10 nM; DMSO vehicle as the no-drug arm
Read-out: 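Viability as fraction of non-targeting pool 2 control, averaged across replicates, robust z-score for single knock-down, and a combination synergy score per anchor drug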
Direction: viability z-score, siRNA alone: higher = more viable cells; low values mean essential gene; viability, siRNA alone, vehicle: higher = more viable cells; synergy score with BYL719 and synergy score with Trametinib: higher = stronger combined killing with the drug
Hit rule: 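a single knock-down scoring under -3 on the robust z-score, meaning fewer cells, counts as essential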
Calls: active = essential when knocked down alone; inactive = no change alone

| viability z-score, siRNA alone | viability, siRNA alone, vehicle (fraction of control) | synergy score with BYL719 | synergy score with Trametinib | activity call | gene knocked down |
| --- | --- | --- | --- | --- | --- |
| -3.09 | 0.633 | -0.0342 | 0.0213 | active | CHEK1 |
| 1.19 | 1 | -0.117 | -0.205 | inactive | SRPK3 |
| 1.04 | 0.987 | 0.0635 | -0.186 | inactive | STRADB |
| -2.15 | 0.714 | -0.121 | -0.163 | inactive | AKT3 |
| 0.402 | 0.932 | 0.00944 | -0.176 | inactive | TRPM6 |
| 0.0641 | 0.904 | 0.03 | -0.148 | inactive | PAK2 |
| -0.492 | 0.856 | -0.144 | -0.108 | inactive | PRKCA |
| 0.495 | 0.94 | -0.0631 | -0.131 | inactive | SLK |

In a second layout: results already given
{"gene knocked down": "AKT3", "viability z-score, siRNA alone": -2.15, "viability, siRNA alone, vehicle (fraction of control)": 0.714, "synergy score with BYL719": -0.121, "synergy score with Trametinib": -0.163, "activity call": "inactive"}
{"gene knocked down": "TRPM6", "viability z-score, siRNA alone": 0.402, "viability, siRNA alone, vehicle (fraction of control)": 0.932, "synergy score with BYL719": 0.00944, "synergy score with Trametinib": -0.176, "activity call": "inactive"}

The listing continues:
| viability z-score, siRNA alone | viability, siRNA alone, vehicle (fraction of control) | synergy score with BYL719 | synergy score with Trametinib | activity call | gene knocked down |
| --- | --- | --- | --- | --- | --- |
| -0.572 | 0.849 | -0.076 | -0.101 | inactive | LMTK1 |
| -0.0826 | 0.891 | -0.0715 | -0.102 | inactive | ULK2 |
| -0.77 | 0.832 | -0.128 | -0.132 | inactive | CRIM1 |
| 1.04 | 0.987 | -0.0785 | -0.147 | inactive | CDKL5 |
| 0.0915 | 0.906 | -0.0818 | -0.0348 | inactive | PKN2 |
| 0.781 | 0.965 | -0.0353 | -0.181 | inactive | JAK3 |
| -0.484 | 0.857 | -0.057 | -0.128 | inactive | MAP4K2 |
| -0.292 | 0.873 | -0.0196 | -0.173 | inactive | MAP3K4 |
| -0.231 | 0.878 | -0.0545 | 0.0457 | inactive | TGFBR2 |
| -0.88 | 0.823 | -0.0924 | -0.239 | inactive | PSKH2 |
| 0.731 | 0.961 | -0.154 | -0.136 | inactive | PRKX |
| -0.879 | 0.823 | 0.0741 | -0.0134 | inactive | EEF2K |
